This experiment addresses T1, LGP2 (laboratory genetics and physiology 2), wild type, expressed from pCAGGS in 293T cells (human) (UniProt Q96C10).
T1 sequence: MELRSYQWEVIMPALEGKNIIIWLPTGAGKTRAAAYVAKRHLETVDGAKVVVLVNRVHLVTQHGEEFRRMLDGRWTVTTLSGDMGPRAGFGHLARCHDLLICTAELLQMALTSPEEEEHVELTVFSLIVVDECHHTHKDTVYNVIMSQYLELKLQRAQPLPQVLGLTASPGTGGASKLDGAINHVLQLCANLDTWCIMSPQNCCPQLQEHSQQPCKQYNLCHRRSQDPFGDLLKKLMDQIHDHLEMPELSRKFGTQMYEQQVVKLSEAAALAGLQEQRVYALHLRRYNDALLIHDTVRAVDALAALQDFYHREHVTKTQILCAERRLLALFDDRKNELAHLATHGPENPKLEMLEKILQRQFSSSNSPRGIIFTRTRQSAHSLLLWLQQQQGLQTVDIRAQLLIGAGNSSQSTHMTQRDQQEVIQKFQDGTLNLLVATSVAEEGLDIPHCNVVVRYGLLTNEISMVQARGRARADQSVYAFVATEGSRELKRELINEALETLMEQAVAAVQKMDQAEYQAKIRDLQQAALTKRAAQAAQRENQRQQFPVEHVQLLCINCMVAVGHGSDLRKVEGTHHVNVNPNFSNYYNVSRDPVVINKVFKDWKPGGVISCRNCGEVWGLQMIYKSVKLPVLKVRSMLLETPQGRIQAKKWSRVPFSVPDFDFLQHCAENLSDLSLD
Briefly: co-IP.

The chains behind the UniProt entries cited, without tags or fusion partners.
UniProt Q9UPY3: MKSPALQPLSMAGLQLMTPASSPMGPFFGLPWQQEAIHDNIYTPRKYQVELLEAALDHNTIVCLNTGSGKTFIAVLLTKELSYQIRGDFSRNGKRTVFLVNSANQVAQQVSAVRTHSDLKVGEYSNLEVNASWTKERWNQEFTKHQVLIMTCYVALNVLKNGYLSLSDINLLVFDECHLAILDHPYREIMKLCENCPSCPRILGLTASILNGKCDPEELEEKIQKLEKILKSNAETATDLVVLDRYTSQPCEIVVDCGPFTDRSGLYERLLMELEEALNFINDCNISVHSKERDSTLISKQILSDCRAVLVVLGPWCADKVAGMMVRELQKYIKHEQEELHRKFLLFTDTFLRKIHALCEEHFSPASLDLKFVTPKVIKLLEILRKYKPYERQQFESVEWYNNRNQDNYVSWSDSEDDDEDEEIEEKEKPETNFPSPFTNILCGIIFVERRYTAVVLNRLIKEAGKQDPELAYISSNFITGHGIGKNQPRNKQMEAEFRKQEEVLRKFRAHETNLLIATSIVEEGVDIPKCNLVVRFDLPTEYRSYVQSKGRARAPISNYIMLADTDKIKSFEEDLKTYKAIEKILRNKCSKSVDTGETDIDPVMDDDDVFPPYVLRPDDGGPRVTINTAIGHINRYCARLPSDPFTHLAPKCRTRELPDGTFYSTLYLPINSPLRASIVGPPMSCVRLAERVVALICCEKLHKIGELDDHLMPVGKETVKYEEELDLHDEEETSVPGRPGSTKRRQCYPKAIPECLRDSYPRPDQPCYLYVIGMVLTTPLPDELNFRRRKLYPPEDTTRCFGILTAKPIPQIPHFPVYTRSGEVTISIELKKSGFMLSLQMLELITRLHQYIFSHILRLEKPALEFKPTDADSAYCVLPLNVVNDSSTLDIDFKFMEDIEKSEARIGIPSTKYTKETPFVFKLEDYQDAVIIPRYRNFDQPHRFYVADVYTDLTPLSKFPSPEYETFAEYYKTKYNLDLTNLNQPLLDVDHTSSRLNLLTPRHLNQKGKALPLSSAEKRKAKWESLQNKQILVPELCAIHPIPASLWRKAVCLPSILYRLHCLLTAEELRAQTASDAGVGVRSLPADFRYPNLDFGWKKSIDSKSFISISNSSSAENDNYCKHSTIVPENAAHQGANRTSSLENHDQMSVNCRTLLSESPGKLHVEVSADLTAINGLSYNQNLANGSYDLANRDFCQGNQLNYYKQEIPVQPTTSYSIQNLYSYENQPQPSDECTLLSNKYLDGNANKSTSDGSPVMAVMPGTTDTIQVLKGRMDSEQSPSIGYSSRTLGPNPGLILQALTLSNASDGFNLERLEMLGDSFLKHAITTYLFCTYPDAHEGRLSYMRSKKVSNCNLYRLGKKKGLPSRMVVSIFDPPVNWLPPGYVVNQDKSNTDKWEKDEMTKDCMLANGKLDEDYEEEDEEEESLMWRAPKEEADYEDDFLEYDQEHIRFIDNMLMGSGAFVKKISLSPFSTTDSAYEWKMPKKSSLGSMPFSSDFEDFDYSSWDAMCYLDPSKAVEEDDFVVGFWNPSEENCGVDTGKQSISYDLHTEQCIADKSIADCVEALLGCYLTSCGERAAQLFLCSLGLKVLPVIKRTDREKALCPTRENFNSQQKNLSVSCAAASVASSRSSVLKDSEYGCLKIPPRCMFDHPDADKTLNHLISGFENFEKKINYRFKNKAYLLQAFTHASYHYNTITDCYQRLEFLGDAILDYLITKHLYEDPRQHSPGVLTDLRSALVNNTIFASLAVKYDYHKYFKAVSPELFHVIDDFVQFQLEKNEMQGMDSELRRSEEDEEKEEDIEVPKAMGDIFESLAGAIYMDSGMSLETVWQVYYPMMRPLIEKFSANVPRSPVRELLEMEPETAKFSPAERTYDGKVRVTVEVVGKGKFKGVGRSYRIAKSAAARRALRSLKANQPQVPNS

These are yes or no findings as the source states them, for the method shown. Binding seen in cells or lysates may run through a third protein. Some entries that bind do so weakly or less than the wild type.

With Dicer (from UniProt Q9UPY3 1-1922), the binding result is “binds”.

These data come from paper PMC10501626.
